Laboratory results from the supplement of paper PMC12823440, “Inhibitors supercharge kinase turnover through native proteolytic circuits” (Nature, 2025).
Where a name gives a salt, the structure may show the parent alone. The list shows a part of the results. The calls rarely recur for the same compound in another form.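 In K562 cells expressing nanoluciferase-fused kinases, luminescence was recorded at 4 h intervals between 2 and 18 h, normalized as percent of control with DMSO at 100% and a positive control at 0%. A significant (2 sigma) signal drop marks a time point as decreased. The authors' rule for a hit is not shown and takes in more than the number of time points.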

Amino acid sequences for entries named in this document (tags omitted). A change or cut given only in a name is not applied to a line headed by its entry.
UniProt Q13131: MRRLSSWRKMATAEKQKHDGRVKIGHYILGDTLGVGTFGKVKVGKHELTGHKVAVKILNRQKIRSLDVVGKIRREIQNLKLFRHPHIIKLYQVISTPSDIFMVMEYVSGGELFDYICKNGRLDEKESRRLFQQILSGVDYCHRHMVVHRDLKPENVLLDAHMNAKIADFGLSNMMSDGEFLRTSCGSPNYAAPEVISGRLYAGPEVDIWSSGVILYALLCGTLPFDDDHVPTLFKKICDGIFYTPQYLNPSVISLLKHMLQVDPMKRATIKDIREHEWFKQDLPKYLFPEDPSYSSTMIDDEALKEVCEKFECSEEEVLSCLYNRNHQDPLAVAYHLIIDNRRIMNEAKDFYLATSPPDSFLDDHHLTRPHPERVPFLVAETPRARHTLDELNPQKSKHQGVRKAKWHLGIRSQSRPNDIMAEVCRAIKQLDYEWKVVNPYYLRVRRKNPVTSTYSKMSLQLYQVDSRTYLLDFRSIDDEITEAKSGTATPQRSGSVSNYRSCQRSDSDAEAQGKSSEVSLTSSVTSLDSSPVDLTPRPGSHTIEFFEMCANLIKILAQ

Target: PRKAA1 (UniProt Q13131)
Assay: kinase-Nluc reporter destabilization hit call (1 = scored as downregulated) (binary); higher = compound decreases kinase abundance
Details: K562; 2-18 h

kinase-Nluc reporter destabilization hit call, inactive:
COc1ccc2nc3ccc(OC)cc3c(SCCCN)c2c1 (10 µM) 0
NC(=O)c1sc2c([N+](=O)[O-])cc(C(F)(F)F)cc2[n+]1[O-] [Cyclapolin 9] (10 µM) 0
CS(=O)(=O)c1cccc(CNc2nc(Nc3ccc4c(c3)CCC(=O)N4)ncc2C(F)(F)F)c1 (10 µM) 0
CS(=O)(=O)c1ccc([C@@H](CC2CCCC2)C(=O)Nc2nccs2)cc1 (10 µM) 0
C=CC(=O)Nc1cc(Nc2nccc(-c3cn(C)c4ccccc34)n2)c(OCC(F)(F)F)nc1N(C)CCNC [AST5902  (trimesylate)] (2.5 µM) 0
CO/N=C1/C(c2c(O)[nH]c3cc(Cl)c(Cl)cc23)=Nc2ccccc21 (10 µM) 0
CC(ONC(=O)c1cc(C(F)(F)F)cc(C(F)(F)F)c1)C(=O)Nc1ccc(Cl)cc1 (stereo unspecified) (2.5 µM) 0
Cc1ccc(C2CC(=O)NC(SCC(=O)Nc3nccs3)=C2C#N)cc1 (stereo unspecified) [Necrostatin-34] (10 µM) 0
O=CN1CCN(c2ccc(C=C3C(=O)Nc4ccccc43)cc2)CC1 (10 µM) 0
CCCS(=O)(=O)N[C@H]1C[C@@H](N(C)c2ncnc3[nH]ccc23)C1 [Abrocitinib] (10 µM) 0
NC(=O)c1cnc(N[C@@H]2CCCC[C@@H]2N)nc1Nc1cccc(-n2nccn2)c1 (2.5 µM) 0
CS[C@@]1(C(=O)Nc2ccc3[nH]nc(-c4ccc(OC(C)C)nc4)c3c2)CCN(CC(=O)N2CC=C(c3ccc(-c4ncn(C)n4)cc3)CC2)C1 (2.5 µM) 0
Fc1ccc(Cl)cc1-c1nc(Nc2ccncc2)c2nccnc2n1 (10 µM) 0
O=C(Nc1ccccc1C(=O)NC1CCCCNC1=O)c1cc2ccccc2s1 (stereo unspecified) (10 µM) 0
CN(C[C@@H]1COCCO1)S(=O)(=O)Nc1ccc2ccc3ncc(-c4cnn(C)c4)cc3c(=O)c2c1 (2.5 µM) 0
NC(=O)c1ccccc1Nc1ccnc(Nc2cccc(O)c2)n1 (10 µM) 0
Cc1ccc2c(NS(=O)(=O)c3ccccc3Cl)cccc2c1Oc1ncccc1-c1ccnc(N[C@H]2CCCNC2)n1 (2.5 µM) 0
O=C(Nc1ccc(Cl)cc1)C1CN(C(=O)c2cccc(-c3ccco3)c2)CC(F)(F)C1 (stereo unspecified) (2.5 µM) 0
COc1cc2ncnc(Nc3cc(Br)c(O)c(Br)c3)c2cc1OC (2.5 µM) 0
CO[C@]1(C(=O)N[C@@H](C)c2ccc(-n3cc(F)cn3)nc2)CC[C@H](c2nc(C)cc(Nc3cc(C)[nH]n3)n2)CC1 [Pralsetinib] (10 µM) 0
CCc1cc(Nc2nccc(-c3c(-c4ccc(OC)c(C(=O)Nc5c(F)cccc5F)c4)nc4ccccn34)n2)c(OC)cc1N1CCC(N2CCN(S(C)(=O)=O)CC2)CC1 (2.5 µM) 0
Cc1nc2c(NCc3cccc(S(C)(=O)=O)c3)nccn2c1-c1ccc(O)c(F)c1 (10 µM) 0
CNC(=O)CN1CCC(Oc2cc3c(Nc4cccc(Cl)c4F)ncnc3cc2OC)CC1 [Sapitinib] (10 µM) 0
COc1ccc(Br)c(C=O)c1O [6-Bromo-2-hydroxy-3-methoxybenzaldehyde] (10 µM) 0
N#C/C(=C/c1ccc(O)c(O)c1)C(=O)N1CCc2ccccc21 [Tyrphostin AG 528] (10 µM) 0
C[C@H](Nc1cc2c(-c3ccc4c(c3)OCO4)noc2cn1)c1ccccc1 (10 µM) 0
CC1(C)CN(C(=O)c2ccc(-c3cccc4nc(NC(=O)C5CC5)nn34)cc2)C1 [Solcitinib] (10 µM) 0
Cc1ccc(NC(=O)N2CCN(c3nc(N)nc4sc(-c5cccnc5)nc34)CC2)cc1 [PI4KIII beta inhibitor 3] (10 µM) 0
COc1ccc(Cl)cc1N(CC(=O)Nc1ccc2c(c1)OCO2)S(=O)(=O)c1ccccc1 (2.5 µM) 0
CN1CCN(c2ccc(-n3cc(-c4ccncc4OCC4CCNCC4)cn3)cc2)CC1 [MELK-8a (hydrochloride)] (10 µM) 0
CC1=CC(=O)C(C(C)C)=C/C1=N/OC(=O)c1ccccc1C [Poloxin] (2.5 µM) 0

No new results follow: an excerpt of the list.
kinase-Nluc reporter destabilization hit call, inactive:
N#C/C(=C/c1ccc(O)c(O)c1)C(=O)N1CCc2ccccc21 [Tyrphostin AG 528] (10 µM) 0
C[C@H](Nc1cc2c(-c3ccc4c(c3)OCO4)noc2cn1)c1ccccc1 (10 µM) 0
